Measured data: PubChem BioAssay AID504764 (Drosophila RNAi Screening Center, 2011)

Test: 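Genome-wide screen for regulators of Notch-driven gene expression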 (primary screen)
Cell system: Drosophila Kc167 cells
Knock-down reagent: long dsRNA against Drosophila genes
Duration: about 5 days (4 days dsRNA, then 24 h after transfection)
Challenge: transfection of constitutively active membrane-tethered Notch lacking the extracellular domain, read 24 h later
Measurement: 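Firefly luciferase from an E(spl)m3 reporter with active Notch, plus control-promoter and uninduced reporter wells for normalisation; unnormalised counts, duplicate wells a and b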
Direction: induced reporter light, run 1, well a and induced reporter light, run 1, well b: higher = more light from the Notch target reporter with active Notch; control promoter light, run 1, well a and control promoter light, run 1, well b: higher = more light from the viral control promoter (cell number, transfection, viability); uninduced reporter light, run 1, well a: higher = more light from the Notch target reporter without active Notch
Hit rule: 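Wells with low control signal or poorly matching duplicates excluded; duplicates averaged; per source plate, z beyond ±2 for induced/control log2 ratio or beyond ±1.8 for induced/uninduced marks a hit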
Meaning of the calls: active = modifier hit (raised or lowered Notch signal); inactive = not a hit
The screen tested about 22,000 reagents; below is an unselected part of those that have a named target and a result. Over the whole deposit, 403 (1.9%) got an active call. 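Unnormalised raw counts per well; ratio z-scores behind the hit calls and whether each hit raises or lowers signal are not deposited.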 Reagents against one gene are numbered here. Names joined by + are all predicted targets of the reagent. Not given: the amount of reagent.

| target | reagent no. | induced reporter light, run 1, well a | induced reporter light, run 1, well b | control promoter light, run 1, well a | control promoter light, run 1, well b | uninduced reporter light, run 1, well a | Outcome |
| --- | --- | --- | --- | --- | --- | --- | --- |
| CG17883 | 1 | 1.98e5 | 1.34e5 | 3.23e5 | 2.33e5 | 9085 | inactive |
| Gnptab | 1 | 2.13e5 | 2.43e5 | 2.50e5 | 2.65e5 | 21170 | inactive |
| Dbp21E2 (DEAD box protein 21E2) | 1 | 1.61e5 | 2.17e5 | 1.56e5 | 1.54e5 | 17585 | inactive |
| e(r) (enhancer of rudimentary) | 1 | 2.04e5 | 2.19e5 | 2.62e5 | 2.48e5 | 14465 | inactive |
| deltaCOP (Coat Protein (coatomer) delta) | 1 | 17165 | 16160 | 35495 | 38340 | 1095 | inactive |
| CG4907 | 1 | 1.59e5 | 1.32e5 | 1.64e5 | 1.84e5 | 13035 | inactive |
| side-III (sidestep III) | 1 | 52985 | 69130 | 55955 | 55550 | 6255 | inactive |
| side-III (sidestep III) | 2 | 22580 | 17555 | 11595 | 15695 | 5460 | inactive |
| side-III (sidestep III) | 3 | 1.14e5 | 1.43e5 | 1.42e5 | 96265 | 8790 | inactive |
| Idh3g | 1 | 1.46e5 | 1.40e5 | 2.07e5 | 1.87e5 | 10915 | inactive |
| CG5080 | 1 | 2.81e5 | 2.32e5 | 2.75e5 | 3.05e5 | 19570 | inactive |
| Klp3A (Kinesin-like protein at 3A) | 1 | 1.65e5 | 1.91e5 | 2.25e5 | 2.49e5 | 13800 | inactive |
| CG10646 | 1 | 1.63e5 | 1.33e5 | 2.27e5 | 1.54e5 | 11135 | inactive |
| CG33136 | 1 | 1.07e5 | 1.03e5 | 1.21e5 | 1.32e5 | 8038 | inactive |
| RhoGEF3 (retired record) | 1 | 54455 | 57945 | 87965 | 86625 | 4380 | inactive |
| RhoGEF3 (retired record) | 2 | 1.79e5 | 1.97e5 | 1.97e5 | 2.06e5 | 8735 | inactive |
| GstE12 (Glutathione S transferase E12) | 1 | 1.78e5 | 1.51e5 | 2.11e5 | 1.97e5 | 13690 | inactive |
| sphinx1 | 1 | 1.73e5 | 1.69e5 | 1.88e5 | 1.84e5 | 7615 | inactive |
| galectin | 1 | 1.50e5 | 1.64e5 | 1.33e5 | 1.07e5 | 11405 | inactive |
| CG31827 + CG18478 | 1 | 1.17e5 | 1.45e5 | 1.50e5 | 1.90e5 | 9615 | inactive |
| psd (palisade) | 1 | 88710 | 63680 | 1.02e5 | 85875 | 5232 | inactive |
| Syt14 (Synaptotagmin 14) | 1 | 1.51e5 | 1.43e5 | 1.07e5 | 1.31e5 | 10345 | inactive |
| Chd64 | 1 | 1.42e5 | 1.48e5 | 88330 | 34790 | 9325 | inactive |
| Pgd (Phosphogluconate dehydrogenase) | 1 | 1.78e5 | 1.76e5 | 2.21e5 | 2.18e5 | 12100 | inactive |
| CG31675 | 1 | 70590 | 67620 | 56945 | 72465 | 7560 | inactive |
| CG7963 | 1 | 91550 | 1.02e5 | 78970 | 62945 | 6615 | inactive |
| CCT1 (Chaperonin containing TCP1 subunit 1) | 1 | 32980 | 33875 | 37180 | 33690 | 3460 | inactive |
| CG9121 | 1 | 50030 | 36305 | 42350 | 32870 | 2388 | inactive |
| CG17994 | 1 | 1.58e5 | 1.40e5 | 1.62e5 | 1.63e5 | 8732 | inactive |
| Dysb (Dysbindin) | 1 | 1.76e5 | 1.74e5 | 2.12e5 | 1.91e5 | 11660 | inactive |
| DUBAI + Tmem18 | 1 | 2.14e5 | 1.86e5 | 2.73e5 | 2.07e5 | 16485 | inactive |
| CG14200 | 1 | 4215 | 4010 | 5328 | 5120 | 5120 | inactive |
| CG16813 | 1 | 1.39e5 | 1.53e5 | 1.18e5 | 1.21e5 | 12270 | inactive |
| CG33225 | 1 | 85915 | 1.01e5 | 79935 | 76355 | 8370 | inactive |

Laid out differently: entries from further up
target,reagent no.,"induced reporter light, run 1, well a","induced reporter light, run 1, well b","control promoter light, run 1, well a","control promoter light, run 1, well b","uninduced reporter light, run 1, well a",Outcome
Dbp21E2 (DEAD box protein 21E2),1,1.61e5,2.17e5,1.56e5,1.54e5,17585,inactive
e(r) (enhancer of rudimentary),1,2.04e5,2.19e5,2.62e5,2.48e5,14465,inactive
deltaCOP (Coat Protein (coatomer) delta),1,17165,16160,35495,38340,1095,inactive
CG4907,1,1.59e5,1.32e5,1.64e5,1.84e5,13035,inactive
